PubChem BioAssay AID1053208, Peter MacCallum Cancer Centre, 2014
Here is an unselected part of about 17,000 reagents. Of all reagents, 788 (4.7%) are marked active. 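Calls rest on z-score classes alone; an extra cut-off of viability at most 70% of control was not applied to them.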 Some reagents were tested in more than one well and are listed for each. Not all columns of the deposit are shown.

Purpose: 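Genes whose silencing cuts survival of bone tumour cells only with doxorubicin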 (primary screen)
System: mouse osteosarcoma cells, early-passage culture from an engineered mouse model of fibroblastic bone tumour
Knock-down reagent: siRNA pool against mouse genes, 40 nM
Time to read-out: about 120 h (48 h before drug, then 72 h with drug)
Conditions: doxorubicin 100 nM for 72 h, roughly 30-40% inhibitory dose
Measurement: 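Luminescent ATP signal taken as viability with or without 100 nM doxorubicin for 72 h; mean of two wells set against non-targeting siRNA and turned into robust z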
Direction: viability z-score with doxorubicin: higher = more viable cells under doxorubicin; viability z-score without drug: higher = more viable cells with knock-down alone
Call rule: 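a pool counts as active when its viability z-score with doxorubicin is -2 or below and its z-score without drug lies between -2 and 2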

How did the screen score Dnajb12 (GeneID 56709)?
combined z-score class: no change with or without drug; viability z-score with doxorubicin: -0.67; viability z-score without drug: 0.51; call: inactive

What did the screen give for Nbl1 (GeneID 17965)?
combined z-score class: no change with or without drug; viability z-score with doxorubicin: 1.8; viability z-score without drug: -0.51; call: inactive

How did the screen score Mga (GeneID 29808)?
combined z-score class: no change with or without drug; viability z-score with doxorubicin: -0.9; viability z-score without drug: -0.51; call: inactive

With Hnrnpa1 (GeneID 15382), what does the deposit list?
combined z-score class: no change with or without drug; viability z-score with doxorubicin: 1.12; viability z-score without drug: 0.84; call: inactive

For Mefv (GeneID 54483), what does the deposit list?
combined z-score class: no change with or without drug; viability z-score with doxorubicin: 0.22; viability z-score without drug: 0.67; call: inactive

With Fcrla (GeneID 98752), what does the deposit list?
combined z-score class: no change with or without drug; viability z-score with doxorubicin: 0.56; viability z-score without drug: 0; call: inactive

For Cd302 (GeneID 66205), what was measured?
combined z-score class: no change with or without drug; viability z-score with doxorubicin: 0.34; viability z-score without drug: -0.67; call: inactive

An excerpt of the results above, as a working copy:
Hnrnpa1 (GeneID 15382) — combined z-score class = no change with or without drug; viability z-score with doxorubicin = 1.12; viability z-score without drug = 0.84; call = inactive
Mefv (GeneID 54483) — combined z-score class = no change with or without drug; viability z-score with doxorubicin = 0.22; viability z-score without drug = 0.67; call = inactive

The results go on.
What is on record for Foxn2 (GeneID 14236)?
combined z-score class: no change with or without drug; viability z-score with doxorubicin: 0.9; viability z-score without drug: 0.67; call: inactive

Which result is listed for Avil (GeneID 11567)?
combined z-score class: no change with or without drug; viability z-score with doxorubicin: -0.22; viability z-score without drug: -0.84; call: inactive

What did the screen give for Abhd3 (GeneID 106861)?
combined z-score class: no change with or without drug; viability z-score with doxorubicin: -0.22; viability z-score without drug: 0.84; call: inactive

What did the screen give for Mrps10 (GeneID 64657)?
combined z-score class: low cell count without drug only; viability z-score with doxorubicin: 0.22; viability z-score without drug: -2.53; call: inactive

With Map4k5 (GeneID 399510), how do the results read?
combined z-score class: low cell count with doxorubicin only; viability z-score with doxorubicin: -2.02; viability z-score without drug: -1.85; call: active

For Map4k5 (GeneID 399510), how do the results read?
combined z-score class: no change with or without drug; viability z-score with doxorubicin: -0.45; viability z-score without drug: 1.18; call: inactive
